In PMC8253768, “Structural plasticity of mumps virus nucleocapsids with cryo-EM structures” (Communications Biology, 2021):
These are yes or no findings as the source states them, for the method shown. Some results given as binding are weak or reduced against the parent protein; the word gives no strength.

Chains of the proteins cited; added tags and fusions are not shown. Residues count along the entry.
UniProt Q77IS8, residues 1-374: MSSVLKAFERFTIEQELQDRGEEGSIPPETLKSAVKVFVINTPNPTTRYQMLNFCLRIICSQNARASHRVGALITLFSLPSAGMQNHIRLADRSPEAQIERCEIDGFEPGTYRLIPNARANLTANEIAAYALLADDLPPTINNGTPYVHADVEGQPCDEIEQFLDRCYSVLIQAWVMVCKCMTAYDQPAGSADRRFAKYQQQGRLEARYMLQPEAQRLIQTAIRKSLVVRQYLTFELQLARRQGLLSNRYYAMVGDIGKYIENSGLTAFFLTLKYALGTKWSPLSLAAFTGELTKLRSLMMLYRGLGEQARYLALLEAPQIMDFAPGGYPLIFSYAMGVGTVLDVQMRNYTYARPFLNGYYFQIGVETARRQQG

Biological target: MuV nucleoprotein with C-arm and N-tail (375–549) truncated (mumps virus) (UniProt Q77IS8)
Assay: cryo-EM structure; helical reconstruction of filaments assembled from purified N_(Δarm), 2.9 Å; both purified

MuV nucleoprotein with C-arm and N-tail (375–549) truncated (from UniProt Q77IS8 1-374) (domain or fragment)
binding: binds
